Data taken from PMC10095280.
No constants are given. Whether binding was seen depends on the method and setting. In cells and extracts the contact can be indirect. Some entries that bind do so weakly or less than the wild type.

Sequences of proteins named here, by UniProt entry; tags and fusion partners are left off. A change or cut given only in a name is not applied to a line headed by its entry. A line that says so, or that is headed by a name, gives the form on record, which may keep a tag or linker.
UniProt P18901: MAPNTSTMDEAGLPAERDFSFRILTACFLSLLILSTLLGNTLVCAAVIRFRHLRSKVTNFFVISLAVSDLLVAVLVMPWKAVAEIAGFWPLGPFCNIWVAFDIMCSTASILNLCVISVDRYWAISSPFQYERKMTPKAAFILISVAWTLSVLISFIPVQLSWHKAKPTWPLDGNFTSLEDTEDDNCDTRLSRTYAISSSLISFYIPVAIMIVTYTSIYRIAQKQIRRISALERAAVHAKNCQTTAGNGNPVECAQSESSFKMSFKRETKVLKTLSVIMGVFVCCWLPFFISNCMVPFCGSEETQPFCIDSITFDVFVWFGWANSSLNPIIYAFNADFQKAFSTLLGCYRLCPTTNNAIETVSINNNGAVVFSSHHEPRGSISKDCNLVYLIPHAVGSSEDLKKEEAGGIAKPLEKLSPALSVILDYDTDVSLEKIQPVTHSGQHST
D1R GRK-null mutant (P18901, form named): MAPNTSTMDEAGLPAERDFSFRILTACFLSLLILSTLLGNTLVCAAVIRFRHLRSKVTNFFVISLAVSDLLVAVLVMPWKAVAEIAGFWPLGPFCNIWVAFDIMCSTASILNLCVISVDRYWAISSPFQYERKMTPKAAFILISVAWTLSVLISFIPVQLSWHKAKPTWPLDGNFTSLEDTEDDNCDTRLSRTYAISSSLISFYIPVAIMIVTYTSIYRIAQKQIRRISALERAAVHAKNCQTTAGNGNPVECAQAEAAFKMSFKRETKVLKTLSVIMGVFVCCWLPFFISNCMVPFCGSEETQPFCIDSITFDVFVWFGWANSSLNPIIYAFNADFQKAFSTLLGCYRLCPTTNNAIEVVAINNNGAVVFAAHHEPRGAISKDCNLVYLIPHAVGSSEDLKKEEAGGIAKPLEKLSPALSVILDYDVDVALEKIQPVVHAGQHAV

Legend:
[1] = molecular target: D1 dopamine receptor wild type, Rluc8-tagged (D1R-Rluc8) (rat) (UniProt P18901); experiment: FRET or BRET; direct β-arrestin recruitment BRET in live HEK293 cells co-transfected with D1R-Rluc8 and β-arrestin2-mVenus; DPBS, room temperature; 5 µM coelenterazine h 5 min, then dopamine 5 min; Emax as percent of the maximum D1R WT dopamine response
[2] = molecular target: D1R GRK-null mutant (rat) (UniProt P18901); experiment: as above

**Q.** Which binding [1] does the source give for “β-arrestin2-mVenus (from UniProt P32121 1-409)” here?
**A.** binds

**Q.** And the binding [2]?
**A.** no binding
